According to publication PMC10878141:
No constants are given. Whether binding was seen depends on the method and setting. In cells and extracts the contact can be indirect. These calls come from enrichment with a bait or labelling near it, and not all partners need be listed.

Protein sequences, listed by entry. Tags and fused reporters are not part of them.
UniProt P06733: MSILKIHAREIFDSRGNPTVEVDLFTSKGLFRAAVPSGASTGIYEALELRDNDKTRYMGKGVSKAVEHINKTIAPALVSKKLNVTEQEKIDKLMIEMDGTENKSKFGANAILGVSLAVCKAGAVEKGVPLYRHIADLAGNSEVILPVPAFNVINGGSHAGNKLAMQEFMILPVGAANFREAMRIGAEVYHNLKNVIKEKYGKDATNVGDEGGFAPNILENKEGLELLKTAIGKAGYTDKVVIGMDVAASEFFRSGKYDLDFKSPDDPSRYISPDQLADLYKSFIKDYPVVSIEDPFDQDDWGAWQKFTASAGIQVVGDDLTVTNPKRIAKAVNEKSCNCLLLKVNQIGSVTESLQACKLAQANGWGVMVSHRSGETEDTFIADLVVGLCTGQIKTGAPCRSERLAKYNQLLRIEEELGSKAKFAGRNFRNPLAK

Target: T1, ubiquitin-specific protease 21 (USP21) (human (endogenous in QBC939 and HuCCT1)) (UniProt Q9UK80)
T1 sequence: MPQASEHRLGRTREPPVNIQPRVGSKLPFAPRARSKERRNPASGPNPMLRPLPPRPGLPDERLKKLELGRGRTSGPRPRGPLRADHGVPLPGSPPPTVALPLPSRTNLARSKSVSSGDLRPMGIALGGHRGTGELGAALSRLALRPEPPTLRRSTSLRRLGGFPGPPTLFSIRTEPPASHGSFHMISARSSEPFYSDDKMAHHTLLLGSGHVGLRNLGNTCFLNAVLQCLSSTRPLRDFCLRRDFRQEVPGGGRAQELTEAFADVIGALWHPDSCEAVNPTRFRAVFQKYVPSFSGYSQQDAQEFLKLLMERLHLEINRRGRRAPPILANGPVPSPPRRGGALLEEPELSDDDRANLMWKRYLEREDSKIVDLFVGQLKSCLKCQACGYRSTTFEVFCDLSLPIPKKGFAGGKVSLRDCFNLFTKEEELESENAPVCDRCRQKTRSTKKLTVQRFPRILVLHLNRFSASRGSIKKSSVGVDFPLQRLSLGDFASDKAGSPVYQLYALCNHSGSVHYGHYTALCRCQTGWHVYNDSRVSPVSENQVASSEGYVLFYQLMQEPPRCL
Experiment: affinity purification with mass spectrometry; IP of total protein of CCA cells with USP21 antibody (sc-515911) and Protein A/G-agarose beads, then mass spectrometry

binding: binds
Substance: alpha-Enolase 1 (ENO1) (from UniProt P06733 1-434) (enzyme)
